This note sets out measurements from US20130012693.

The chains behind the UniProt entries cited, without tags or fusion partners. Residues count along the entry.
UniProt P01138, 122-241: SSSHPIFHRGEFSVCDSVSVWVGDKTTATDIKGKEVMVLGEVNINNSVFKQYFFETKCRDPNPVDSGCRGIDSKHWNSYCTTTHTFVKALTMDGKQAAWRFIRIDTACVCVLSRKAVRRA

Series [1] concerns the target beta-NGF (Homo sapiens) (UniProt P01138). Briefly: filter binding. The settings on record: purified recombinant protein, label: radiolabel, single-stranded DNA.
The target is the same in series [2]. In words: activity in cells. The settings on record: single-stranded DNA.
[3] abbreviates: BndU at Z' (n) positions [n positions 15,22,23,28,29,30,36,37,39 = modified dU], retained binding, variant of 2426-66.

A negative result means that nothing was seen under these conditions.

Turning to “AGTGACCGTCTGCCTGCAGCGGGACACATGAGGACTTGGGGTTTAGCCGT [2426-66-3]”, the binding result in series [1] (BndU at Z' (n) positions [n positions 29,36,37,42,43,44,50 = modified dU], did not retain binding, described as poor affinity in p179, variant of 2426-66) is given as “no binding”. For the same sequence, the “functional effect of the aptamer” value in series [2] (BndU at Z' (n) positions [n positions 29,36,37,42,43,44,50 = modified dU], PC12 neurite growth at 10 nM, little inhibition, 3'-idT, purified recombinant …, variant of 2426-66) is listed as “not active”; in series [2] (BndU at Z' (n) positions [n positions 29,36,37,42,43,44,50 = modified dU], TrkA phosphorylation, little inhibition at 10 nM, purified recombinant protein, variant of 2426-66), “not active”. For “CATGAGGACTTGGGGTTTAGCCGTTGTG [2426-66-50]”, in series [2] (BndU at Z' (n) positions, 3'-idT in cell assays [n positions 3,10,11,16,17,18,24,25,27 = modified dU], TrkA phosphorylation effectively inhibited at 10 nM, purified recombinant protein, variant of 2426-66), the “functional effect of the aptamer” value is on record as “active”. In the case of “CATGAGGACTTGGGGTTTAGCCGTTGTG [2426-66-75]”, in series [1] (BndU at Z' (n) positions, dT at 11 and 18, 3'-idT in cell assays [n positions 3,10,16,17,24,25,27 = modified dU], no loss of affinity vs unsubstituted control, variant of 2426-66-50), the binding result is given as “binds”. Also, the “functional effect of the aptamer” value in series [2] (BndU at Z' (n) positions, dT at 11 and 18, 3'-idT in cell assays [n positions 3,10,16,17,24,25,27 = modified dU], PC12 neurite growth at 10 nM, not effective inhibitor although affinity retained, 3'-idT, purified recombinant protein, variant of 2426-66-50) is listed as “not active”. “GAGTGACCGTCTGCCTGCAGCGGGACACATGAGGACTTGGGGTTTAGCCGTTGTGGCACAGAGAAGAAACAAGACC [2426-66]”: in series [2] (BndU at Z' (n) positions [n positions 30,37,38,43,44,45,51,52,54 = modified dU], TrkA phosphorylation effectively inhibited at 10 nM, purified recombinant protein), the “functional effect of the aptamer” value was “active”. TGAGGACTTGGGGTTTAGCCGTTGTG [2426-66-72]: the binding result in series [1] (BndU at Z' (n) positions, dT at 22 [n positions 1,8,9,14,15,16,23,25 = modified dU], complete loss of affinity, variant of 2426-66-54) is listed as “no binding”. As for TGAGGACTTGGGGTTTAGCCGTTGTG [2426-66-73], the binding result in series [1] (BndU at Z' (n) positions, dT at 23 [n positions 1,8,9,14,15,16,22,25 = modified dU], complete loss of affinity, variant of 2426-66-54) was “no binding”. As to TGAGGACTTGGGGTTTAGCCGTTGTG [2426-66-74], the binding result in series [1] (BndU at Z' (n) positions, dT at 25 [n positions 1,8,9,14,15,16,22,23 = modified dU], complete loss of affinity, variant of 2426-66-54) was “no binding”. With TGAGGACTTGGGGTTTAGCCGTTGTG [2426-66-77], the binding result in series [1] (BndU at Z' (n) positions, dT at 9 and 16 [n positions 1,8,14,15,22,23,25 = modified dU], no loss of affinity vs unsubstituted control, variant of 2426-66-54) is listed as “binds”. In the case of “TGCAGCGGGACACATGAGGACTTGGGGTTTAGCCGTTGTG [2426-66-30]”, the binding result in series [1] (setting [3]) is recorded as “binds”. The same measure, in the same setting: as for “TGCAGCGGGACACATGAGGACTTGGGGTTTAGCCGTTGTGGCACAGAGAA [2426-66-17]”, the entry is “binds”. As to “TGCCTGCAGCGGGACACATGAGGACTTGGGGTTTAGCCGTTGTGGCACAG [2426-66-13]”, in series [1] (BndU at Z' (n) positions [n positions 19,26,27,32,33,34,40,41,43 = modified dU], retained binding, variant of 2426-66), the binding result is “binds”.
